Experimental data from US7030231 (University of California, dated 2006).
These are yes or no findings as the source states them, for the method shown. Some binding calls cover weakened binding; strength is not graded here. Sequences can lack the tags named with a protein.

Molecular target: T1, His-tagged MT-SP1 protease domain (refolded, autoactivated, purified on p-aminobenzamidine resin) (human) (UniProt Q9Y5Y6)
T1 sequence 1: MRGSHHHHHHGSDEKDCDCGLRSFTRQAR
T1 sequence 2: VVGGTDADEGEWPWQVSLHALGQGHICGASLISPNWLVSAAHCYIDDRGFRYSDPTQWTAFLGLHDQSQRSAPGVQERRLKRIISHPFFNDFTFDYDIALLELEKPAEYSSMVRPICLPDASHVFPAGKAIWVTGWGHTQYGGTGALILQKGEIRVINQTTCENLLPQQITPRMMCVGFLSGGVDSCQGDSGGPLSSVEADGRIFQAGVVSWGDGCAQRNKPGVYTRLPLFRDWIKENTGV
Test: enzyme inhibition assay, Spectrozyme tPA

In the case of “ecotin (wild-type) (from UniProt P23827 21-162)”, the binding is reported as “binds”.

B1: ecotin M84R/M85R (other, E. coli (purified from E. coli), UniProt P23827 21-162, looked up)
chain: AESVQPLEKIAPYPQAEKGMKRQVIQLTPQEDESTLKVELLIGQTLEVDCNLHRLGGKLENKTLEGWGYDYYVFDKVSSPVSTRRACPDGKKEKKFVTAYLGDAGMLRYNSKLPIVVYTPDNVDVKYRVWKAEEKIDNAVVR
notes: They probably count on mature ecotin, not on the precursor with its signal peptide
For B1, the binding was “binds”.
